# From the supplement of paper PMC8728848
# The list shows a part of the results.
# What was measured:
# [1] = biological target: Neu5Gc(a2-8)Neu5Gc(a2-6)Gal(b1-4)GlcNAc; assay: glycan array binding signal (z-score within array); higher = stronger binding; settings: glycan notation: IUPAC condensed, linker removed
# Summary of the method: (§1)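 The binding signal is a Z-score computed within each array. Data were drawn from 3228 arrays in the Consortium for Functional Glycomics database, restricted to those with a known protein sequence. Scores were averaged over arrays of the same protein sequence at different concentrations or buffers, and over linkers, and negative values can be taken as non-binding.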
# [2] = biological target: Neu5Gc(b2-6)Gal(b1-4)GlcNAc; assay: as above; settings: glycan notation: IUPAC condensed, linker removed
# Summary of the method: as §1
binder,measurement,setting,value
Aap lectin (Staphylococcus epidermidis) (protein) VNLNYSSPFMSLLSMPADSSSNNTKNTIDIPPTTVKGRDNYDFYGRVDIESNPTDLNATNLTRYNYGQPPGTTTAGAVQFKNQVSFDKDFDFNIRVANNRQSNTTGADGWGFMFSKKDGDDFLKNGGILREKGTPSAAGFRIDTGYYNNDPLDKIQKQAGQGYRGYGTFVKNDSQGNTSKVGSGTPSTDFLNYADNTTNDLDGKFHGQKLNNVNLKYNASNQTFTATYAGKTWTATLSELGLSPTDSYNFLVTSS,glycan array binding signal (z-score),[1],-0.88
same,glycan array binding signal (z-score),[2],0.72
